The M2OR odorant receptor database
The list shows a part of the results, in another mix than the full data. Calls are pooled over several reports, among them a noisy single-well screen. The list shows a part of the results.

Experiments:
Settings in all cases: stereoisomer not certain
OR8U9 = tested on: T1, OR8U9
T1 sequence (whole entry): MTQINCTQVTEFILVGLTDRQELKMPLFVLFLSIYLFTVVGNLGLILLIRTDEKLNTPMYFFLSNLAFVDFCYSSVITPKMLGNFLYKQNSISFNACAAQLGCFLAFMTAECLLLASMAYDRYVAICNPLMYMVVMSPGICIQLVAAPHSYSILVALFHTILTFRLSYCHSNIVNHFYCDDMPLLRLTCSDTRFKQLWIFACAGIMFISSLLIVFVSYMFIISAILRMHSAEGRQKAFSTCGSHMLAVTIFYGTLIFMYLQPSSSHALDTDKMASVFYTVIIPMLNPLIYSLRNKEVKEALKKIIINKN
How it was run: (§1)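 Assay methods differ from source to source, frequently being transient luciferase assays in mammalian cell lines. For each receptor–molecule pair, the label responsive (active) applies when the original authors judged the measured signal statistically different from baseline, and non-responsive (inactive) applies otherwise.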

OR9A2 = tested on: T2, OR9A2
T2 sequence (whole entry): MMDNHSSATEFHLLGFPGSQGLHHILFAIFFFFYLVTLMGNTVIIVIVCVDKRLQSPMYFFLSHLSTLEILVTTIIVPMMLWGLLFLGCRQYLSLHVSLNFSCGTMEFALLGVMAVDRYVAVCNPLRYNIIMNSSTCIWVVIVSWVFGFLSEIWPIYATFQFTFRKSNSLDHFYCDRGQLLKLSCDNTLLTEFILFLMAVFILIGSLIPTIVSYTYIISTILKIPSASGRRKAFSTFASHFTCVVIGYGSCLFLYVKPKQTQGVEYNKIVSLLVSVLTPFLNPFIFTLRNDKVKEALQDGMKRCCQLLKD
How it was run: as §1

OR9A4 (Homo sapiens) = target: T3, OR9A4 (Homo sapiens) (UniProt Q8NGU2)
T3 sequence (whole entry): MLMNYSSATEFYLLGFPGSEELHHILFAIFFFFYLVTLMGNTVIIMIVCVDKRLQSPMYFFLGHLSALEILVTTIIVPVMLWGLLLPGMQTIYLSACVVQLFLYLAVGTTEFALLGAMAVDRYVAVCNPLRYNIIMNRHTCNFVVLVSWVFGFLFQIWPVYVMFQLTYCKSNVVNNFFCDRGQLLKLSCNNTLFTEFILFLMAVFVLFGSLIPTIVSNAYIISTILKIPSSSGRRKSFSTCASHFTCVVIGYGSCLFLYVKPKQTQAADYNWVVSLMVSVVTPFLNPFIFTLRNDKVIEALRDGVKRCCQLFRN
How it was run: as §1

OR9G4 = tested on: T4, OR9G4
T4 sequence (whole entry): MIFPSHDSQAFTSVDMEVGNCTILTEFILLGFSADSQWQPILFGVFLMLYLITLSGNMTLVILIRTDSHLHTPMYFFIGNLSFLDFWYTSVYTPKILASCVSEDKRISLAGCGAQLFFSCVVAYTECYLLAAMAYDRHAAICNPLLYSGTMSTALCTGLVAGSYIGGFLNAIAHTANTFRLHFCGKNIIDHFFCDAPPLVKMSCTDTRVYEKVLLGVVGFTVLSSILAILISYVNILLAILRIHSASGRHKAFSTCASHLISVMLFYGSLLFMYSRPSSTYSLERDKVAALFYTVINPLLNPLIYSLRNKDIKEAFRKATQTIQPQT
How it was run: as §1

OR9G9 [1] = tested on: T5, OR9G9
T5 sequence (whole entry): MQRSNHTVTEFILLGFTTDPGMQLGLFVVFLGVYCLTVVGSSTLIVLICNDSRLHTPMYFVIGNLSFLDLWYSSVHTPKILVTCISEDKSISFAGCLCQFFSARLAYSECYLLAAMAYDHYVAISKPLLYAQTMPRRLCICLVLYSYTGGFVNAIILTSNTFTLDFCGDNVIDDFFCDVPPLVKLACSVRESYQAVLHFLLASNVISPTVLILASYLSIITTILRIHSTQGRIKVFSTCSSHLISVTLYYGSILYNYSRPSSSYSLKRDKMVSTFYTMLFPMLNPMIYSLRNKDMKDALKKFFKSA
How it was run: as §1

OR9G9 [2] = tested on: T6, OR9G9; remark: listed apart in the source
T6 sequence (whole entry): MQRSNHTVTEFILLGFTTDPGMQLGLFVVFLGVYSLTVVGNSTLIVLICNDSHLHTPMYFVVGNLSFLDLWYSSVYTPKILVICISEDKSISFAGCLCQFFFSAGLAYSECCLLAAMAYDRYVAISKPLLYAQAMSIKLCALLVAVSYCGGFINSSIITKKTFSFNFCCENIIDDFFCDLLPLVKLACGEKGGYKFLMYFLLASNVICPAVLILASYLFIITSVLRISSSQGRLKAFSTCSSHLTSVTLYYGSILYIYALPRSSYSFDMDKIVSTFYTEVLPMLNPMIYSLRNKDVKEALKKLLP
How it was run: as §1

OR9I1 (Homo sapiens) = target: T7, OR9I1 (Homo sapiens) (UniProt Q8NGQ6)
T7 sequence (whole entry): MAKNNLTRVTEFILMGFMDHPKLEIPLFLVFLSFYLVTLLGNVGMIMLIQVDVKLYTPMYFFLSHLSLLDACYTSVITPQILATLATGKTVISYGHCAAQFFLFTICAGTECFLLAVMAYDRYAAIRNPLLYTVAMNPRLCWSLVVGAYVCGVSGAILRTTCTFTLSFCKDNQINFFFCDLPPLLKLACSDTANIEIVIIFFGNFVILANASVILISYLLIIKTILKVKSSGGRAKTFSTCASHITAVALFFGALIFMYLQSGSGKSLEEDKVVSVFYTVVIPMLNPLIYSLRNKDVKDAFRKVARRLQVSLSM
How it was run: as §1

OR9K2 (Homo sapiens) = target: T8, OR9K2 (Homo sapiens) (UniProt Q8NGE7)
T8 sequence (whole entry): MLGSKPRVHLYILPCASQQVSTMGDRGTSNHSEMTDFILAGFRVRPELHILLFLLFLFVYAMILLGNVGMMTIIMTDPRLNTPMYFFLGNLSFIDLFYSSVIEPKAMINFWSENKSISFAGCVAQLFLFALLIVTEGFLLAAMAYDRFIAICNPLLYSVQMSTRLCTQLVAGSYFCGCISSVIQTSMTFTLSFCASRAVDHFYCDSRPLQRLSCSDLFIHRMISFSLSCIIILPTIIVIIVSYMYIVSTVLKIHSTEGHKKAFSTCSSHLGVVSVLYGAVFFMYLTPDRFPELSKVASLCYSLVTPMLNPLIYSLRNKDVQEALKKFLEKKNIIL
How it was run: as §1

OR9Q1 = tested on: T9, OR9Q1
T9 sequence (whole entry): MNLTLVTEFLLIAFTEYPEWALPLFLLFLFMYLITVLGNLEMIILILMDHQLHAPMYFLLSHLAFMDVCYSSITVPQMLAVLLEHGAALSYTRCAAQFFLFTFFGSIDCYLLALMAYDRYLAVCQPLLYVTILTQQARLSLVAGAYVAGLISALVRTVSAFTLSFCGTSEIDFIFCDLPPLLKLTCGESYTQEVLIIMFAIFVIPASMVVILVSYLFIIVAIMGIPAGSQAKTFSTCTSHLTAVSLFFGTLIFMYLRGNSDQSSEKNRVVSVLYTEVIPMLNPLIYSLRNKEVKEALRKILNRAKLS
How it was run: as §1

OR9Q2 (Homo sapiens) = target: T10, OR9Q2 (Homo sapiens) (UniProt Q8NGE9)
T10 sequence (whole entry): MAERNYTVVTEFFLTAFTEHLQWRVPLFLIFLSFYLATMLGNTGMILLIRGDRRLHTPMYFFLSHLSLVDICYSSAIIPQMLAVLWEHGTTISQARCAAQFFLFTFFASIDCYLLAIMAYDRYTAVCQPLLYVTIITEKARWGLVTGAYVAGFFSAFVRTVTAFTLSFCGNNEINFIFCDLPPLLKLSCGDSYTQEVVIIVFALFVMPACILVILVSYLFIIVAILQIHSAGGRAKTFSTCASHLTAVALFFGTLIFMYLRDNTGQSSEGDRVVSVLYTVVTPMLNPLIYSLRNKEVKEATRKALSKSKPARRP
How it was run: as §1

Row | SMILES | odorant receptor agonist call (OR8U9) | odorant receptor agonist call (OR9A2) | odorant receptor agonist call (OR9A4 (Homo sapiens)) | odorant receptor agonist call (OR9G4) | odorant receptor agonist call (OR9G9 [1]) | odorant receptor agonist call (OR9G9 [2]) | odorant receptor agonist call (OR9I1 (Homo sapiens)) | odorant receptor agonist call (OR9K2 (Homo sapiens)) | odorant receptor agonist call (OR9Q1) | odorant receptor agonist call (OR9Q2 (Homo sapiens))
1 | CC(C)CCC(=O)O | inactive | inactive | inactive | inactive | inactive | inactive | inactive | inactive | inactive | inactive
2 | CCC1(O)C2(C)CCC(C2)C1(C)C (centres undefined) | inactive | inactive | inactive | inactive | inactive | inactive | inactive | inactive | inactive | inactive
3 | CCCCCC(=O)O | inactive | inactive | inactive | inactive | inactive | inactive | inactive | inactive | inactive | inactive
4 | CC(=O)OC1CC2CCC1(C)C2(C)C (centres undefined) | inactive | inactive | active | inactive | inactive | inactive | inactive | inactive | inactive | inactive
5 | c1ccc(Oc2ccccc2)cc1 | inactive | inactive | inactive | inactive | inactive | inactive | inactive | inactive | inactive | inactive
6 | CC(C)CC(=O)O | inactive | active | inactive | inactive | inactive | inactive | inactive | inactive | active | inactive
7 | CCCCCC(C)=O | inactive | inactive | inactive | inactive | inactive | inactive | inactive | inactive | – | inactive
8 | CCC=CCCO | inactive | inactive | inactive | inactive | inactive | inactive | inactive | inactive | inactive | inactive
9 | COC(=O)c1ccccc1 | inactive | inactive | inactive | inactive | inactive | active | inactive | inactive | – | inactive
10 | COC(=O)c1ccccc1O | inactive | inactive | inactive | inactive | inactive | inactive | inactive | inactive | inactive | inactive
11 | CC(C)(O)CCCC1=CCC(C=O)CC1 (centres undefined) | – | – | – | – | – | – | – | – | inactive | –
12 | CC12C=CCC1C1CCC3=CC(=O)CCC3(C)C1CC2 (centres undefined) | inactive | inactive | inactive | inactive | inactive | inactive | inactive | inactive | inactive | inactive
13 | COc1cc(C=O)ccc1O | inactive | inactive | inactive | inactive | inactive | inactive | inactive | inactive | inactive | inactive
